Assay results taken from publication PMC12023400.
These are yes or no findings as the source states them, for the method shown. Binding seen in cells or lysates may run through a third protein. Some results given as binding are weak or reduced against the parent protein; the word gives no strength. Sequences can lack the tags named with a protein.

Amino acid sequences for entries named in this document (tags omitted).
UniProt Q13547: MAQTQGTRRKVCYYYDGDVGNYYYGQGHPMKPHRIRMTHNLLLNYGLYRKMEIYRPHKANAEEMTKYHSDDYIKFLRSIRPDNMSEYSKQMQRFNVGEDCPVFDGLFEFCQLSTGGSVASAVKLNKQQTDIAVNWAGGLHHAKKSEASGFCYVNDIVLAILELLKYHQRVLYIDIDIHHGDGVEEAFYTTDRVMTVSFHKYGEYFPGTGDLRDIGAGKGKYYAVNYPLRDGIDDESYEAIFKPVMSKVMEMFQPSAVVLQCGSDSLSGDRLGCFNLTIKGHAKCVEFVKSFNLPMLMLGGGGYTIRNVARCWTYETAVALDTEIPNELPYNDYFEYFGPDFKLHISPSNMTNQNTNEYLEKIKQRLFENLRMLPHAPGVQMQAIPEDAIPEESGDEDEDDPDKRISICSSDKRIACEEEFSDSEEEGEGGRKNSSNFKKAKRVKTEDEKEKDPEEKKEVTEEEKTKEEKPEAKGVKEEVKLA

T1: 3HA-SAP30 (human Sin3A associated protein 30) (human) (UniProt O75446)
T1 sequence: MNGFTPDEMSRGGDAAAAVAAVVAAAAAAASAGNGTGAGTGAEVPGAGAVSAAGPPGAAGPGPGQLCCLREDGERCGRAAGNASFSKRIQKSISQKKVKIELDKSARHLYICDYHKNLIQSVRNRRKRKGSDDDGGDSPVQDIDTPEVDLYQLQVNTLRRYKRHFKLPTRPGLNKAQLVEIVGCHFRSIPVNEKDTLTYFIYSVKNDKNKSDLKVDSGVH

T2: Flag-Tas (prototype foamy virus Tas protein) (prototype foamy virus) (UniProt P14353)
T2 sequence: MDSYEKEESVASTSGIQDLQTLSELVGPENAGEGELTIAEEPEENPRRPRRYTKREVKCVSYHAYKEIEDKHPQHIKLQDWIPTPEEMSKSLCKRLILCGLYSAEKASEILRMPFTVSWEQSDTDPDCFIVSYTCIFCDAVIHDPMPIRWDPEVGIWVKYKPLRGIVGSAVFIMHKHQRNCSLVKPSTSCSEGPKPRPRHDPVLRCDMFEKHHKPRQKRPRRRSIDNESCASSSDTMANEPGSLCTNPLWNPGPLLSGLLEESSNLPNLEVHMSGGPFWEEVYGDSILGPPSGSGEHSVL

B1: 3HA-SAP30 (human Sin3A associated protein 30) (protein, UniProt O75446 1-220)
chain: MNGFTPDEMSRGGDAAAAVAAVVAAAAAAASAGNGTGAGTGAEVPGAGAVSAAGPPGAAGPGPGQLCCLREDGERCGRAAGNASFSKRIQKSISQKKVKIELDKSARHLYICDYHKNLIQSVRNRRKRKGSDDDGGDSPVQDIDTPEVDLYQLQVNTLRRYKRHFKLPTRPGLNKAQLVEIVGCHFRSIPVNEKDTLTYFIYSVKNDKNKSDLKVDSGVH
B2: endogenous SAP30 (protein, UniProt O75446 1-220)
chain: MNGFTPDEMSRGGDAAAAVAAVVAAAAAAASAGNGTGAGTGAEVPGAGAVSAAGPPGAAGPGPGQLCCLREDGERCGRAAGNASFSKRIQKSISQKKVKIELDKSARHLYICDYHKNLIQSVRNRRKRKGSDDDGGDSPVQDIDTPEVDLYQLQVNTLRRYKRHFKLPTRPGLNKAQLVEIVGCHFRSIPVNEKDTLTYFIYSVKNDKNKSDLKVDSGVH
B3: Myc-Tas (prototype foamy virus Tas protein) (protein, UniProt P14353 1-300)
chain: MDSYEKEESVASTSGIQDLQTLSELVGPENAGEGELTIAEEPEENPRRPRRYTKREVKCVSYHAYKEIEDKHPQHIKLQDWIPTPEEMSKSLCKRLILCGLYSAEKASEILRMPFTVSWEQSDTDPDCFIVSYTCIFCDAVIHDPMPIRWDPEVGIWVKYKPLRGIVGSAVFIMHKHQRNCSLVKPSTSCSEGPKPRPRHDPVLRCDMFEKHHKPRQKRPRRRSIDNESCASSSDTMANEPGSLCTNPLWNPGPLLSGLLEESSNLPNLEVHMSGGPFWEEVYGDSILGPPSGSGEHSVL
B4: Flag-Tas (prototype foamy virus Tas protein) (protein, UniProt P14353 1-300)
chain: MDSYEKEESVASTSGIQDLQTLSELVGPENAGEGELTIAEEPEENPRRPRRYTKREVKCVSYHAYKEIEDKHPQHIKLQDWIPTPEEMSKSLCKRLILCGLYSAEKASEILRMPFTVSWEQSDTDPDCFIVSYTCIFCDAVIHDPMPIRWDPEVGIWVKYKPLRGIVGSAVFIMHKHQRNCSLVKPSTSCSEGPKPRPRHDPVLRCDMFEKHHKPRQKRPRRRSIDNESCASSSDTMANEPGSLCTNPLWNPGPLLSGLLEESSNLPNLEVHMSGGPFWEEVYGDSILGPPSGSGEHSVL

How the values were obtained:
[1] = biological target: T1, 3HA-SAP30 (human Sin3A associated protein 30) (human); assay: co-IP; HEK293T cells transfected with Flag-Tas, Flag-HDAC1 and SAP30 truncations, 48 h; IP with HA antibodies (3HA-SAP30 forms as bait); blot with Flag and HA antibodies
[2] = biological target: Flag-HDAC1 (UniProt Q13547); assay: co-IP; HEK293T cells transfected with Myc-Tas and Flag-HDAC1, 3HA-SAP30 or empty vector, 48 h; IP with Flag antibodies (Flag-HDAC1 as bait); blot with Myc, Flag and HA antibodies
[3] = biological target: T2, Flag-Tas (prototype foamy virus Tas protein) (prototype foamy virus); assay: co-IP; HEK293T cells transfected with Flag-Tas (with or without 3HA-SAP30), 48 h; IP with Flag antibodies and Protein A beads in IP lysis buffer (50 mM Tris HCl pH 8.0, 150 mM NaCl, 1% NP40), 4 °C; blot with HA, SAP30 and Flag antibodies

| Molecule | binding [1] | binding [2] | binding [3] |
| --- | --- | --- | --- |
| Flag-HDAC1 (from UniProt Q13547 1-482) (enzyme) | binds | – | – |
| B1 | – | binds | binds |
| B2 | – | – | binds |
| B3 | – | binds | – |
| B4 | binds | – | – |
